These are yes or no findings as the source states them, for the method shown.
What was measured:
[1] = molecular target: T1, Flu-SLX4_pT1260 (human); assay: fluorescence polarisation; 100 nM fluorescein-labelled SLX4 peptide, increasing concentrations of TOPBP1 BRCT fragment; room temperature; 25 mM HEPES pH 7.5, 150 mM NaCl, 1 mM EDTA, 0.25 mM TCEP, 0.002% Tween 20; single site with non-specific component; both purified
T1 sequence (peptide, fluorescein ('Flu') on the N-terminus; phosphothreonine at Thr1260): GYGTSWLVPATPLASRSR

[2] = molecular target: T2, Flu-SLX4_pT1476 (human); assay: as above
T2 sequence (peptide, fluorescein ('Flu') on the N-terminus; phosphothreonine at Thr1476): GYGSPGLLDTTPIRGSCT

recombinant TOPBP1 BRCT 4-5 domain containing fragment (human) (domain or fragment)
binding [1]: no binding
binding [2]: no binding

recombinant TOPBP1 BRCT 7-8 domain containing fragment (human) (domain or fragment)
binding [1]: no binding
binding [2]: no binding
